PMC7545994
Results are given in words; binding and its absence hold for the method and conditions named. Binding seen in cells or lysates may run through a third protein. Some entries that bind do so weakly or less than the wild type. Sequences can lack the tags named with a protein.

Biological target: T1, TAB2-Myc (UniProt Q9NYJ8)
T1 sequence: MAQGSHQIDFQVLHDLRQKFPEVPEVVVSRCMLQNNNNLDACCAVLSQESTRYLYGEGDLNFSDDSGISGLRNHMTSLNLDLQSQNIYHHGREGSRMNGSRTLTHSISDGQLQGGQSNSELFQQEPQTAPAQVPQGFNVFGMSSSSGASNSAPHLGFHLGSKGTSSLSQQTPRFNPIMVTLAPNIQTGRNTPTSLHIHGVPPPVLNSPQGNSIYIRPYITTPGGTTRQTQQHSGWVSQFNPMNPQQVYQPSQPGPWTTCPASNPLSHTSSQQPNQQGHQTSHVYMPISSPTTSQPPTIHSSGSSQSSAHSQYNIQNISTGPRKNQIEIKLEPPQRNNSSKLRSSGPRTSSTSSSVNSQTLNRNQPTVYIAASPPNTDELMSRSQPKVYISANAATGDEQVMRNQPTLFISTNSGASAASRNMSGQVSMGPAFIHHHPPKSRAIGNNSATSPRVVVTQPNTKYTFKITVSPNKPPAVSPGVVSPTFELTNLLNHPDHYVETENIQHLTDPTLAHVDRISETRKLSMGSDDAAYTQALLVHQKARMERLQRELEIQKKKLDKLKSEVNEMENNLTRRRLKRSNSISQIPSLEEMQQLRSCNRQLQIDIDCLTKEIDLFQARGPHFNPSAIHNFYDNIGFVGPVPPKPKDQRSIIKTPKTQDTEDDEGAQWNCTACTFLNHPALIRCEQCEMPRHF
Test: co-IP; 293T-tet-CLU cells co-transfected with tagged proteins, with or without Dox-induced CLU; IP with Myc or Flag antibody, western blot with tag and CLU antibodies

binding: binds
B1: TAK1-Flag (enzyme, UniProt O43318 1-606)
chain: MSTASAASSSSSSSAGEMIEAPSQVLNFEEIDYKEIEVEEVVGRGAFGVVCKAKWRAKDVAIKQIESESERKAFIVELRQLSRVNHPNIVKLYGACLNPVCLVMEYAEGGSLYNVLHGAEPLPYYTAAHAMSWCLQCSQGVAYLHSMQPKALIHRDLKPPNLLLVAGGTVLKICDFGTACDIQTHMTNNKGSAAWMAPEVFEGSNYSEKCDVFSWGIILWEVITRRKPFDEIGGPAFRIMWAVHNGTRPPLIKNLPKPIESLMTRCWSKDPSQRPSMEEIVKIMTHLMRYFPGADEPLQYPCQYSDEGQSNSATSTGSFMDIASTNTSNKSDTNMEQVPATNDTIKRLESKLLKNQAKQQSESGRLSLGASRGSSVESLPPTSEGKRMSADMSEIEARIAATTAYSKPKRGHRKTASFGNILDVPEIVISGNGQPRRRSIQDLTVTGTEPGQVSSRSSSPSVRMITTSGPTSEKPTRSHPWTPDDSTDTNGSDNSIPMAYLTLDHQLQPLAPCPNSKESMAVFEQHCKMAQEYMKVQTEIALLLQRKQELVAELDQDEKDQQNTSRLVQEHKKLLDENKSLSTYYQQCKKQLEVIRSQQQKRQGTS
